Laboratory results published in publication PMC3843111.
Results are given in words; binding and its absence hold for the method and conditions named. Binding seen in cells or lysates may run through a third protein. Some entries that bind do so weakly or less than the wild type.

Chains of the proteins cited; added tags and fusions are not shown.
UniProt Q8CHK4: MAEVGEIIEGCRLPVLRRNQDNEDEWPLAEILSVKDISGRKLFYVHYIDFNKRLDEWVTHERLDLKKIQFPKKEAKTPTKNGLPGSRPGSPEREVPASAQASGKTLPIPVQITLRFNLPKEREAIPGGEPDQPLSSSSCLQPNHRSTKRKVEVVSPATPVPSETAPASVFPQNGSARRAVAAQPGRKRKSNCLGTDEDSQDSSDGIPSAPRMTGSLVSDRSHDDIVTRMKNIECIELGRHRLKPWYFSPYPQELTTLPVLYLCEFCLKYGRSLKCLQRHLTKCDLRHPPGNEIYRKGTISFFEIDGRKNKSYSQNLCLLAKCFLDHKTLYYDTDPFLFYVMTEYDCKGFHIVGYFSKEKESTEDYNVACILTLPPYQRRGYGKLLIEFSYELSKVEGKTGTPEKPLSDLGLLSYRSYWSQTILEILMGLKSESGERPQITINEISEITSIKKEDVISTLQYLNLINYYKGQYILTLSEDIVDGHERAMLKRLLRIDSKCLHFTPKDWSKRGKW
UniProt Q9JI44: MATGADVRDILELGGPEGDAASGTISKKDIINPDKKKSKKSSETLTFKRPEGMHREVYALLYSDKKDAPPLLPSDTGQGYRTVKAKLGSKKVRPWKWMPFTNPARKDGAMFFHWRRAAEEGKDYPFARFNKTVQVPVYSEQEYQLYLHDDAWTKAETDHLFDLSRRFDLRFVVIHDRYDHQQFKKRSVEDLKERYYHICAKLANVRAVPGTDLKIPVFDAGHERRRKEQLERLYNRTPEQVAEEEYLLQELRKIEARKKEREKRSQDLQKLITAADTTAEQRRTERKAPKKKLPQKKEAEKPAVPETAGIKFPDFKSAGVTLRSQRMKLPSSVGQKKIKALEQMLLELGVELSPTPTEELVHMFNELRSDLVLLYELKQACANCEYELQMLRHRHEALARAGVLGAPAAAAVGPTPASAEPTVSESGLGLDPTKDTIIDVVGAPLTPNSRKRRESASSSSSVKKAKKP

Key:
[1] = biological target: Tip60-H3F (Tip60 with a C-terminal 6-histidine-3-FLAG tag, from the endogenous gene) in ESCs (mouse (endogenous in ESCs)) (UniProt Q8CHK4); test: co-IP; Tip60 complexes purified (FLAG-M2 Agarose, then TALON Agarose) from nuclear extracts of Tip60-H3F ESCs or MEFs, Western blot
[2] = biological target: Tip60-H3F (Tip60 with a C-terminal 6-histidine-3-FLAG tag, from the endogenous gene) in ESCs (mouse (endogenous in ESCs)) (UniProt Q8CHK4); test: co-IP; Tip60-H3F immunoprecipitated with anti-FLAG (FLAG-M2 Agarose) from nuclear extracts (ESCs; NSCs), Western blot; IP buffer 50 mM Tris-HCl pH7.4, 250 mM NaCl, 0.1% Triton X-100, overnight at 4°C; also with DNase I or ethidium bromide, with high-salt washes, and with five additional washes with or without 10 uM tubastatin A

“DNA methyltransferase 1-associated protein 1 (from UniProt Q9JI44 1-468)” was tested, and the binding [1] was “binds” and the binding [2] was “binds”.
